Laboratory results published in the supplement of paper PMC10331698.
± gives the standard deviation of the averaged measurements. Most entries show no effect beyond the scatter of the controls.

Assays:
Assay in all cases: level (log10 ratio to DMSO vehicle control); higher = higher biomarker level / cell amount than vehicle control
Perfluorononanoic acid = compound: O=C(O)C(F)(F)C(F)(F)C(F)(F)C(F)(F)C(F)(F)C(F)(F)C(F)(F)C(F)(F)F [Perfluorononanoic acid]; conditions: 2200 nM; in DMSO
Experimental: (§1)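 BioMAP Diversity Plus panel of 12 human primary cell co-culture systems (3C, 4H, LPS, SAg, BT, BF4T, BE3C, CASM3C, HDF3CGF, KF3CT, MyoF, Mphg). Compounds were added 1 h before stimulation and left for 24 h (MyoF 48 h; BT 72 h for soluble read-outs or 6 d for IgG). Biomarkers were read by ELISA, cytotoxicity by SRB, PBMC viability and proliferation by Alamar Blue. Each well value was divided by the mean of 8 DMSO control wells on the same plate and log10 transformed; duplicate blinded samples were tested at 4 concentrations.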

[1] = compound: OCC(F)(F)OC(F)(F)C(F)(F)OC(F)(F)C(F)(F)OC(F)(F)CO [1H,1H,11H,11H-Perfluorotetraethylene glycol]; conditions: 2200 nM; in DMSO
Experimental: as §1

[2] = compound: O=C(O)C(F)(F)C(F)(F)C(F)(F)C(F)(F)C(F)(F)C(F)(F)C(F)(F)F [Ammonium perfluorooctanoate]; conditions: 2200 nM; in DMSO
Experimental: as §1

[3] = compound: C=CC(=O)OCC(F)(F)C(F)(F)C(F)(F)C(F)(F)C(F)(F)C(F)(F)C(F)(F)C(F)F [1H,1H,9H-Perfluorononyl acrylate]; conditions: 2200 nM; in DMSO
Experimental: as §1

[4] = compound: FC(F)(F)C(F)(F)C(F)(F)C(F)(F)C(F)(F)C(F)(F)C(F)(F)C(F)(F)CCS [2-(Perfluorooctyl)ethanthiol]; conditions: in DMSO
Experimental: as §1

Perfluorooctanoic acid = compound: O=C(O)C(F)(F)C(F)(F)C(F)(F)C(F)(F)C(F)(F)C(F)(F)C(F)(F)F [Perfluorooctanoic acid]; conditions: 2200 nM; in DMSO
Experimental: as §1

[5] = compound: O=C(CC(=O)C(F)(F)C(F)(F)C(F)(F)F)c1cccs1 [(Perfluorobutyryl)-2-thenoylmethane]; conditions: 2200 nM; in DMSO
Experimental: as §1

[6] = compound: CCOC(=O)CC(=O)C(F)(F)C(F)(F)F [Ethyl pentafluoropropionyl acetate]; conditions: 2200 nM; in DMSO
Experimental: as §1

Perfluorooctanamidine = compound: N=C(N)C(F)(F)C(F)(F)C(F)(F)C(F)(F)C(F)(F)C(F)(F)C(F)(F)F [Perfluorooctanamidine]; conditions: in DMSO
Experimental: as §1

[7] = compound: O=C(O)C(F)(F)OC(F)(F)C(F)(F)OC(F)(F)C(F)(F)OC(F)(F)C(F)(F)C(F)(F)C(F)(F)F [Perfluoro-3,6,9-trioxatridecanoic acid]; conditions: 2200 nM; in DMSO
Experimental: as §1

Perfluorodecanoic acid = compound: O=C(O)C(F)(F)C(F)(F)C(F)(F)C(F)(F)C(F)(F)C(F)(F)C(F)(F)C(F)(F)C(F)(F)F [Perfluorodecanoic acid]; conditions: in DMSO
Experimental: as §1

[8] = compound: O=C(O)CCC(F)(C(F)(F)F)C(F)(F)F [4,4-bis(Trifluoromethyl)-4-fluoropropanoic acid]; conditions: 2200 nM; in DMSO
Experimental: as §1

[9] = compound: OCC(F)(F)C(F)(F)C(F)(F)C(F)(F)C(F)(F)C(F)(F)C(F)(F)C(F)(F)CO [1H,1H,10H,10H-Perfluorodecane-1,10-diol]; conditions: 2200 nM; in DMSO
Experimental: as §1

[10] = compound: O=C(O)C(F)(F)OC(F)(F)C(F)(F)OC(F)(F)F [Perfluoro-3,6-dioxaheptanoic acid]; conditions: 2200 nM; in DMSO
Experimental: as §1

Row | Test System | level (log10) (Perfluorononanoic acid) | level (log10) [1] | level (log10) [2] | level (log10) [3] | level (log10) ([4]; 740 nM) | level (log10) ([4]; 2200 nM) | level (log10) (Perfluorooctanoic acid) | level (log10) [5] | level (log10) [6] | level (log10) (Perfluorooctanamidine; 2200 nM) | level (log10) (Perfluorooctanamidine; 6700 nM) | level (log10) (Perfluorooctanamidine; 20000 nM) | level (log10) (Perfluorooctanamidine; 60000 nM) | level (log10) [7] | level (log10) (Perfluorodecanoic acid; 2200 nM) | level (log10) (Perfluorodecanoic acid; 6700 nM) | level (log10) (Perfluorodecanoic acid; 20000 nM) | level (log10) [8] | level (log10) [9] | level (log10) [10]
1 | MyoF:bFGF | -0.0155 ± 0.022 | -0.009 ± 0.0071 | 0.0055 ± 0.011 | -0.007 | 0.0065 ± 0.0092 | 0.0195 ± 0.025 | -0.0045 ± 0.0021 | 0.01 ± 0.013 | 0.008 ± 0.013 | 0.003 ± 0.0085 | -0.0085 ± 0.032 | -0.0115 ± 0.03 | 0.044 | -0.003 ± 0.011 | 0.0015 ± 0.013 | 0.001 ± 0.0042 | 0.0055 ± 0.0035 | 0.0065 ± 0.022 | 0.0025 ± 0.0092 | 0.0015 ± 0.064
2 | lMphg:CCL3/MIP-1alpha | 0.0065 ± 0.025 | -0.007 ± 0.02 | 0 ± 0.0071 | 0.004 ± 0.034 | 0.003 ± 0.028 | 0.0115 ± 0.011 | 0.029 ± 0.042 | 0.013 ± 0.027 | -0.011 ± 0.014 | -0.013 ± 0.048 | -0.029 ± 0.03 | 0.0015 ± 0.035 | 0.055 | -0.0155 ± 0.03 | -0.019 ± 0.024 | 0.004 ± 0.013 | -0.0125 ± 0.049 | -0.0135 ± 0.03 | 0.0125 ± 0.061 | 0.0045 ± 0.029
3 | MyoF:Collagen III | -0.0215 ± 0.013 | -0.0015 ± 0.016 | -0.01 ± 0.018 | -0.001 ± 0.051 | 0.0025 ± 0.0092 | -0.0095 ± 0.028 | 0.003 ± 0.011 | -0.025 ± 0.0014 | -0.02 ± 0.018 | 0.0105 ± 0.016 | -0.0045 ± 0.015 | 0.003 ± 0.017 | 0.006 | -0.007 ± 0.048 | -0.015 ± 0.011 | -0.028 ± 0.03 | -0.36 ± 0.066 | -0.022 ± 0.021 | -0.0025 ± 0.032 | 0.0015 ± 0.012
4 | 3C:CXCL8/IL-8 | 0.05 ± 0.033 | 0.025 ± 0.037 | 0.0045 ± 0.0021 | 0.008 ± 0.013 | 0.0475 ± 0.097 | 0.0175 ± 0.047 | 0.054 ± 0.02 | 0.007 ± 0.018 | 0.001 ± 0.014 | 0.028 ± 0.027 | 0.018 ± 0.011 | 0.022 ± 0.0085 | 0.08 | -0.0065 ± 0.019 | 0.0225 ± 0.0078 | 0.009 ± 0.013 | 0.0155 ± 0.021 | 0.0315 ± 0.029 | 0.018 ± 0.071 | 0.0435 ± 0.0078
5 | 3C:CD62E/E-Selectin | -0.002 ± 0.02 | -0.0035 ± 0.028 | 0.013 ± 0.011 | 0.015 ± 0.011 | -0.0065 ± 0.0092 | -0.0295 ± 0.013 | 0.0045 ± 0.026 | 0 ± 0.035 | -0.011 ± 0.016 | -0.006 ± 0.024 | -0.0045 ± 0.023 | -0.005 ± 0.027 | -0.039 | -0.008 ± 0.016 | 0.0025 ± 0.00071 | -0.004 ± 0.0085 | 0.0025 ± 0.019 | -0.0135 ± 0.036 | -0.0105 ± 0.0035 | 0 ± 0.03
6 | BF4T:IL-1alpha | -0.0095 ± 0.0078 | 0.018 ± 0.0099 | -0.0175 ± 0.0035 | 0.013 ± 0.013 | -0.026 ± 0.021 | -0.027 ± 0.027 | 0.0105 ± 0.012 | -0.005 ± 0.03 | 0.0225 ± 0.064 | 0.0105 ± 0.0092 | -0.003 ± 0.0085 | -0.017 ± 0.0014 | 0.042 | -0.0135 ± 0.026 | -0.004 ± 0.013 | -0.0335 ± 0.0035 | -0.247 ± 0.28 | 0.003 ± 0.034 | 0.014 ± 0.044 | -0.02 ± 0.0099
7 | lMphg:M-CSF | -0.0415 ± 0.011 | -0.006 ± 0.024 | 0.0215 ± 0.019 | -0.0365 ± 0.0092 | 0.014 ± 0.016 | -0.0035 ± 0.0021 | -0.008 ± 0.0085 | 0.0185 ± 0.018 | 0.0045 ± 0.028 | -0.005 ± 0.045 | -0.0155 ± 0.016 | -0.0015 ± 0.0021 | -0.001 | 0.013 ± 0.035 | -0.014 ± 0.03 | 0.019 ± 0.021 | 0.0105 ± 0.037 | -0.0125 ± 0.039 | 0.01 ± 0.062 | -0.0355 ± 0.026
8 | lMphg:CD106/VCAM-1 | -0.0215 ± 0.011 | 0.0005 ± 0.013 | 0.009 ± 0.018 | -0.02 ± 0.04 | 0.002 ± 0.011 | 0.0025 ± 0.0035 | 0.0055 ± 0.0064 | 0.0065 ± 0.0035 | 0.01 ± 0.017 | -0.0015 ± 0.018 | -0.006 ± 0.0028 | -0.008 ± 0.0057 | -0.08 | -0.005 ± 0.0085 | -0.0135 ± 0.015 | 0.004 ± 0.0014 | -0.0145 ± 0.053 | -0.01 ± 0.013 | -0.002 | -0.002 ± 0.044
9 | 4H:CD62P/P-selectin | -0.0425 ± 0.067 | 0.0225 ± 0.059 | 0.0195 ± 0.073 | -0.007 ± 0.068 | 0.0055 ± 0.043 | -0.017 ± 0.044 | 0.001 ± 0.018 | -0.0085 ± 0.071 | 0.017 ± 0.013 | -0.011 ± 0.017 | -0.0165 ± 0.012 | -0.007 ± 0.0085 | -0.032 | -0.0335 ± 0.05 | 0.0805 ± 0.0021 | 0.087 ± 0.0071 | 0.093 ± 0.033 | -0.005 ± 0.025 | -0.037 ± 0.0071 | -0.0085 ± 0.023
10 | KF3CT:CCL2/MCP-1 | -0.086 ± 0.058 | 0.0135 ± 0.094 | -0.002 ± 0.011 | 0.055 ± 0.023 | 0.003 ± 0.011 | -0.026 ± 0.011 | 0.0175 ± 0.04 | 0.0275 ± 0.043 | -0.0095 ± 0.076 | -0.013 ± 0.021 | -0.0075 ± 0.0064 | 0.029 ± 0.0099 | 0.092 | -0.037 ± 0.02 | -0.02 ± 0.038 | -0.127 ± 0.023 | -0.321 ± 0.032 | 0.012 ± 0.021 | 0.025 ± 0.069 | -0.045 ± 0.0099
11 | BT:sIL-17F | 0.027 ± 0.072 | -0.012 ± 0.04 | 0.061 ± 0.062 | -0.109 ± 0.12 | -0.211 ± 0.021 | -0.07 ± 0.14 | 0.124 ± 0.13 | -0.081 ± 0.048 | 0.0095 ± 0.013 | -0.0245 ± 0.022 | -0.0225 ± 0.071 | -0.209 ± 0.023 | -0.112 | 0.0095 ± 0.018 | -0.018 ± 0.088 | 0.019 ± 0.016 | 0.0345 ± 0.13 | 0.019 ± 0.065 | 0.0015 ± 0.039 | 0.027 ± 0.059
12 | 3C:CCL2/MCP-1 | -0.045 ± 0.017 | 0.008 ± 0.055 | 0.0065 ± 0.028 | 0.027 ± 0.014 | 0.008 ± 0.085 | 0.0075 ± 0.05 | 0.0135 ± 0.0021 | 0.016 ± 0.061 | -0.0065 ± 0.018 | 0.0245 ± 0.0092 | 0.0185 ± 0.012 | 0.0085 ± 0.011 | 0.062 | 0.0265 ± 0.052 | 0.0095 ± 0.029 | 0.0065 ± 0.013 | -0.004 ± 0.0028 | -0.002 ± 0.013 | 0.024 ± 0.0099 | -0.0085 ± 0.11

Retrieved one by one from the entries so far, 2 records:
Row | Test System | level (log10) (Perfluorononanoic acid) | level (log10) [1] | level (log10) [2] | level (log10) [3] | level (log10) ([4]; 740 nM) | level (log10) ([4]; 2200 nM) | level (log10) (Perfluorooctanoic acid) | level (log10) [5] | level (log10) [6] | level (log10) (Perfluorooctanamidine; 2200 nM) | level (log10) (Perfluorooctanamidine; 6700 nM) | level (log10) (Perfluorooctanamidine; 20000 nM) | level (log10) (Perfluorooctanamidine; 60000 nM) | level (log10) [7] | level (log10) (Perfluorodecanoic acid; 2200 nM) | level (log10) (Perfluorodecanoic acid; 6700 nM) | level (log10) (Perfluorodecanoic acid; 20000 nM) | level (log10) [8] | level (log10) [9] | level (log10) [10]
2 | lMphg:CCL3/MIP-1alpha | 0.0065 ± 0.025 | -0.007 ± 0.02 | 0 ± 0.0071 | 0.004 ± 0.034 | 0.003 ± 0.028 | 0.0115 ± 0.011 | 0.029 ± 0.042 | 0.013 ± 0.027 | -0.011 ± 0.014 | -0.013 ± 0.048 | -0.029 ± 0.03 | 0.0015 ± 0.035 | 0.055 | -0.0155 ± 0.03 | -0.019 ± 0.024 | 0.004 ± 0.013 | -0.0125 ± 0.049 | -0.0135 ± 0.03 | 0.0125 ± 0.061 | 0.0045 ± 0.029
9 | 4H:CD62P/P-selectin | -0.0425 ± 0.067 | 0.0225 ± 0.059 | 0.0195 ± 0.073 | -0.007 ± 0.068 | 0.0055 ± 0.043 | -0.017 ± 0.044 | 0.001 ± 0.018 | -0.0085 ± 0.071 | 0.017 ± 0.013 | -0.011 ± 0.017 | -0.0165 ± 0.012 | -0.007 ± 0.0085 | -0.032 | -0.0335 ± 0.05 | 0.0805 ± 0.0021 | 0.087 ± 0.0071 | 0.093 ± 0.033 | -0.005 ± 0.025 | -0.037 ± 0.0071 | -0.0085 ± 0.023
